# From PubChem BioAssay AID2685 (National Center for Advancing Translational Sciences (NCATS), 2010)
# This is one part of the list. Further columns of the screen follow, without active or inactive calls. Compounds called inactive in the main read-out are mostly missing here. Potencies come from curve fits of mixed quality, noted in brackets.
# Experiment: qHTS Assay for Lipid Storage Modulators in Drosophila S3 Cells;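 for cell number change: cells counted by Cell Tracker Red CMTPX staining in the red channel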
# Settings: BODIPY lipid droplet fluorescence, 18-24 h; for cell number change: measured here: cell count max response, cells fed with added oleic acid
# Method in brief: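 Drosophila S3 cells loaded with oleic acid (400 uM, as added) and compounds at several concentrations; lipid droplets imaged by 488-nm laser-scanning cytometry, 500–530 nm intensity and object ratio to cell channel. Percent activity normalized to 20 uM Triacsin C.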
# [1] = measured here: cell number channel AC50, cells fed with added oleic acid
# [2] = measured here: lipid fluorescence (Fed channel) AC50, cells fed with added oleic acid
SMILES,AC50 [1],AC50 [2],cell number change
COc1ccc(C(=O)N[C@H](C(=O)Nc2nc3ccccc3[nH]2)C(C)C)cc1,"0.146 µM [falling, full curve, poor fit]",–,–
Cc1nc(NC(CC(C)C)C(=O)O)c2nc(C)oc2n1 (centres undefined),"0.651 µM [rising, single point]","0.731 µM [rising, full curve, poor fit]",–
CC(=O)c1cccc(NC(=O)c2ccc3c(c2)OCO3)c1,–,"9.2 µM [falling, partial curve, poor fit]",-8.21%
O=[N+]([O-])c1cc2c(cc1/C=N/n1c(-c3ccccc3)n[nH]c1=S)OCO2,–,"0.651 µM [falling, single point]",-0.461%
O=C(O)C1CCCN1C(=O)C1CCN(S(=O)(=O)c2cccc(C(F)(F)F)c2)CC1 (centres undefined),–,–,25%
COc1ccc(C(=O)N(CCN2CCOCC2)CC(=O)NC2CCCC2)cc1OC,"29.1 µM [falling, single point]","23.1 µM [falling, single point]",-89.3%
CN(CC(=O)NNC(=O)Cc1ccccc1F)S(=O)(=O)c1ccc(Cl)cc1,–,"3.66 µM [rising, single point]",-12.3%
C/C(=N\NC(=O)c1ccncc1)c1ccc(N(C)C)cc1,–,–,29.6%
COc1ccc(CC(=O)NCC2CCCN(Cc3cccc(C(F)(F)F)c3)C2)cc1 (centres undefined),–,–,16.6%
O=C(NC1CCN(S(=O)(=O)c2cccc(F)c2)CC1)c1ccc(F)cc1,–,–,1.4%
COc1ccccc1C(=O)NCCC(=O)NCC(c1ccccc1OC)N1CCCC1 (centres undefined),–,–,6.83%
O=C(NCc1ccccc1)c1c(F)c(F)c(F)c(F)c1F,"0.461 µM [rising, full curve, poor fit]","29.1 µM [falling, single point]",15.1%
C=CCc1cc(C=O)cc(OC)c1OCc1ccc(C(=O)O)cc1,–,"20.6 µM [rising, single point]",31.1%
CCOc1ccc(C(=O)NC(C(=O)NCc2ccccc2OC)C(C)C)cc1 (centres undefined),"1.16 µM [rising, full curve, poor fit]","1.84 µM [rising, full curve]",39.8%
Cc1ccccc1NC(=O)c1oc(=O)c2ccccc2c1-c1ccccc1,–,"4.61 µM [rising, partial curve]",20.6%
COc1ccc(CCNS(=O)(=O)c2ccc3c(c2)n(C)c(=O)c(=O)n3C)cc1OC,–,"0.13 µM [falling, full curve, poor fit]",1.93%
Cc1cc(OCC(=O)Nc2ccccc2N2CCCC2)ccc1C(C)C,"0.00461 µM [falling, full curve, poor fit]","29.1 µM [falling, single point]",25%
CC1(C)Cc2c(sc3c2c(N)nc(=S)n3Cc2ccc(Br)cc2)CO1,"0.092 µM [rising, full curve, poor fit]",–,28%
CN(C)S(=O)(=O)c1cccc(NC(=O)COC(=O)CCSc2ccc(Cl)cc2)c1,–,"4.61 µM [rising, partial curve]",6.32%
COc1ccc(CC(=O)N/N=C(\C)CC(=O)Nc2ccc3c(c2)OCCO3)cc1,–,"6.51 µM [rising, partial curve, poor fit]",-0.794%

SMILES,AC50 [1],AC50 [2],cell number change
CN(C)S(=O)(=O)c1ccc(Cl)c(NC(=O)COC(=O)CN2C(=O)C3CCCCC3C2=O)c1 (centres undefined),–,–,68.3%
CCN1CCN(C(=O)c2cc(-c3ccc(Cl)s3)nc3ccccc23)CC1,–,–,-5.25%
O=C(Cc1c[nH]c2ccccc12)Nc1cccc(S(=O)(=O)N2CCCCC2)c1,"2.06 µM [rising, partial curve, poor fit]",–,–
CCC(CC)c1nnc(NC(=O)c2ccc3ccccc3n2)s1,"0.146 µM [rising, full curve, poor fit]",–,–
O=C1CCc2cc(S(=O)(=O)N3CCC(C(=O)NCc4ccccc4Cl)CC3)ccc2N1,"0.13 µM [rising, full curve, poor fit]",–,–
COc1ccccc1C(=O)C1CCCN(Cc2ccc3c(c2)OCCO3)C1 (centres undefined),–,"0.517 µM [falling, full curve, poor fit]",10.7%
O=C(Nc1ccc2ccccc2n1)Nc1cccs1,–,"0.326 µM [rising, full curve, poor fit]",–
CC(C)(C)NS(=O)(=O)c1ccc2nc(NC(=O)c3ccc(N4C(=O)CCC4=O)cc3)sc2c1,"29.1 µM [rising, single point]",–,52.4%
COc1cccc(-n2nnnc2SCC(=O)Nc2ccccc2OC)c1,–,–,5.91%
CCOC(=O)N1CCC(NC(=O)c2cc(C(=O)Nc3ccc(OCC)cc3)ccc2CO)CC1,"18.4 µM [rising, single point]","14.6 µM [rising, single point]",32.5%
COc1ccccc1Nc1ncnc2c1cnn2-c1cccc(C)c1,"3.66 µM [rising, full curve, poor fit]",–,29.4%
CS(=O)(=O)N1CCN(C(=O)Cc2ccccc2)CC1,–,"29.1 µM [rising, single point]",4.78%
Cc1ccc2nsnc2c1S(=O)(=O)N(Cc1ccco1)Cc1cc2cccc(C)c2[nH]c1=O,"32.6 µM [rising, single point]","4.11 µM [falling, single point]",35.1%
O=C(c1[nH]ncc1-c1ccccc1)C1CO1 (centres undefined),–,"6.51 µM [falling, single point]",8.24%
O=C(O)CCCC(=O)NCCCCc1ccccc1,"0.0517 µM [falling, full curve, poor fit]",–,3.22%
Cc1ccc(NC(=O)COc2ncnc3ccccc23)cc1S(=O)(=O)N1CCOCC1,–,–,0.482%
CCOc1ccc(CC(=O)NCCS(=O)(=O)N2CCN(c3ccccc3)CC2)cc1,"3.26 µM [rising, single point]",–,–
CC(C(=O)Nc1ccccc1C(=O)N1CCCC1)n1nnc2ccccc21 (centres undefined),"29.1 µM [falling, single point]","29.1 µM [falling, single point]",-48.5%
COC(=O)[C@H](CCSC)NC(=O)Cn1ccc(N)nc1=O,"0.461 µM [falling, partial curve, poor fit]",–,-15.1%
CCN(C(=O)c1cc2c(=O)n3ccccc3nc2n1C)C1CCCCC1,–,"0.13 µM [rising, single point]",18.5%

# Already shown: entries from further up.
SMILES,AC50 [1],AC50 [2],cell number change
CC(C)(C)NS(=O)(=O)c1ccc2nc(NC(=O)c3ccc(N4C(=O)CCC4=O)cc3)sc2c1,"29.1 µM [rising, single point]",–,52.4%
COc1cccc(-n2nnnc2SCC(=O)Nc2ccccc2OC)c1,–,–,5.91%
CCOC(=O)N1CCC(NC(=O)c2cc(C(=O)Nc3ccc(OCC)cc3)ccc2CO)CC1,"18.4 µM [rising, single point]","14.6 µM [rising, single point]",32.5%
COc1ccccc1Nc1ncnc2c1cnn2-c1cccc(C)c1,"3.66 µM [rising, full curve, poor fit]",–,29.4%
CS(=O)(=O)N1CCN(C(=O)Cc2ccccc2)CC1,–,"29.1 µM [rising, single point]",4.78%

# Additional records

SMILES,AC50 [1],AC50 [2],cell number change
O=C(OCc1nnc(-c2ccccc2)o1)c1ccccc1,–,"2.91 µM [falling, single point]",17.3%
On1c(-c2ccccc2Cl)nc2ccccc21,–,–,-5.35%
COc1cccc(/C=N/n2c(C3CCCCC3)n[nH]c2=S)c1,"25.9 µM [falling, single point]","25.9 µM [falling, single point]",-37.8%
COc1ccc2nc(/N=C/c3cccc(OC)c3O)sc2c1,–,"0.58 µM [rising, single point]",9.72%
O=C(Cn1cc([N+](=O)[O-])nc1[N+](=O)[O-])N1CCN(c2ccccc2)CC1,"0.92 µM [falling, full curve, poor fit]","0.461 µM [falling, full curve]",-42.5%
O=S(Cc1ccc(Cl)cc1)CC(O)COc1ccc(Cl)cc1 (centres undefined),–,–,-12.7%
COc1ccc(NC(=O)CN(C)C(=O)c2sc3ccccc3c2Cl)cc1,"0.092 µM [falling, full curve, poor fit]","14.6 µM [falling, partial curve]",-19%
N#CCC(=O)N/N=C/c1c2ccccc2cc2ccccc12,–,"18.4 µM [rising, partial curve]",8.42%
CCOc1ccccc1NC(=O)CN1C(=O)COc2ccc(S(=O)(=O)N3CCOCC3)cc21,–,–,34.7%
O=C(O)CCc1ccc(-c2ccc(Cl)cc2)n1CCC(=O)O,–,"14.6 µM [falling, single point]",2.24%
Cc1ccc2[nH]c(C(=O)N/N=C/c3ccccc3C(=O)O)c(-c3ccccc3)c2c1,–,"29.1 µM [falling, single point]",-22.8%
Cc1ccc(O)c(Nc2nc(-c3ccccc3)nc3ccccc23)c1,–,"29.1 µM [falling, single point]",-17.5%
COc1ccc(-c2ccc(CCC(=O)O)n2CC(C)C)cc1,"7.31 µM [rising, partial curve, poor fit]",–,59%
Cc1ccc(-n2c(SCC(=O)N/N=C/C=C/c3ccccc3[N+](=O)[O-])nc3ccccc3c2=O)cc1,"0.82 µM [rising, full curve]","1.46 µM [rising, full curve]",39%
CCOC(=O)CCP(=O)(O)C(C)(O)c1ccccc1 (centres undefined),"25.9 µM [rising, single point]","29.1 µM [falling, single point]",35.5%
O=C(Nc1nnc(C2CC2)o1)c1ccc(S(=O)(=O)N2CCCc3ccccc32)cc1,–,"7.31 µM [rising, partial curve, poor fit]",20%
CCOC(=O)C1=NN(C(=O)Cc2ccccc2)C(O)(C(C)(C)C)C1 (centres undefined),–,"25.9 µM [rising, single point]",13.4%
Cc1cc(C(=O)COc2cccnc2[N+](=O)[O-])c(C)n1-c1ccccc1F,–,"29.1 µM [falling, single point]",-3.81%
O=C(COc1cccc2cccnc12)N1CCc2ccccc2C1,"1.46 µM [rising, partial curve]",–,–
CCCCCOc1ccc(Br)cc1/C(C)=N/NC1=NCCN1,"18.4 µM [falling, partial curve]","20.6 µM [falling, partial curve]",-72.1%
